Measured values published in PubChem BioAssay AID1794845 (National Center for Advancing Translational Sciences (NCATS), 2023).
Hit rate of the full screen: of about 6,900 compounds, fewer than 10 were called active. Calls follow the shape of the dose curve; as a rule, active = well fitted curve in the direction sought with a large enough effect; inconclusive = small, poorly fitted or top-dose-only effect, or another doubt; inactive = no such curve, though single readings can be large or run the other way. Some of the results follow.

By UniProt entry, the sequences of proteins in these tests, tags left out. Where a name states a change or a piece, a line headed by the entry shows the natural chain unless it says otherwise.
UniProt C7C422: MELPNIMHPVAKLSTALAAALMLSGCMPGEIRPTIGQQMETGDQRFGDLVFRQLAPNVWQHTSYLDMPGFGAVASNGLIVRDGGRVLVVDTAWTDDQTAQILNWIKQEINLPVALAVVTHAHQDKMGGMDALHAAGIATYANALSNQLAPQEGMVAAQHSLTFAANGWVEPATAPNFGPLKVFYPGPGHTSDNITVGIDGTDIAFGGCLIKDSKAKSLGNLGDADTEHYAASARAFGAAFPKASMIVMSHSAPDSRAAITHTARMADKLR

target: Metallo-beta-lactamase type 2 (Klebsiella pneumoniae) (UniProt C7C422); experiment: qHTS to identify inhibitors of the New Delhi Metallo-beta-lactamase (NDM): primary screen against the NCATS Gemini Collection; settings: NDM-1 enzyme, meropenem hydrolysis, absorbance 300 nm; at 38.4 µM (top of the series) unless noted; also: % of control where 0% means no effect
Method in brief: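 Meropenem hydrolysis (50 uM final) by 2 nM NDM-1 read as 300 nm absorbance after 30 min, following >30 min compound–enzyme preincubation in HEPES pH 7.0 with 1 uM ZnSO4 and 0.01% Tween20.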

Activity % (negative = inhibition), inactive:
COC(=O)c1nc(NC(=O)CC[C@H]2NC(=O)c3ccccc3NC2=O)sc1C 16.6%
CCn1c2c(c(=O)n1Cc1ccccc1)CCN(C(=O)c1ccc(Oc3ccccc3)cc1)C2 -13.9%
CCNC(=O)c1coc(COc2ccc3c(c2)C(c2cccc(C)c2)N(C(=O)C2CC2)CC3)n1 (stereo not drawn) -0.726%
O=C(Nc1cccc(C(F)(F)F)c1)[C@@H]1CCCN1c1ccnc2ccnn12 9.09%
CCC(=O)N1CCCC(c2nc(-c3cccnn3)no2)C1 (stereo not drawn) 14.4%
O=C(Cc1cccc(Cl)c1)N1CC(c2nc(Cc3ccccc3)no2)C1 -1.12%
Cc1ccc(CN2CC(Oc3ccccc3C(=O)NCc3ccccc3)C2)o1 -1.97%
Clc1ccccc1C1(c2ccnc(NCCc3ccncc3)n2)CCNCC1 23.3%
Cc1cc(CN(C)c2ccc(-c3nc(-c4ccccc4F)no3)cn2)on1 25.4%
COc1ccc(CN2C(=O)COC[C@H]2C(=O)Nc2cc(F)cc(F)c2)cc1OC -11.3%
COc1ccc(OC2CCN(C(C)=O)CC2)c(C(=O)N2C[C@@H]3CCC[C@H]2C3)c1 16.9%
C=CCSC(C)C(=O)N1CCCn2nc(C(=O)OC)cc2C1 (stereo not drawn) 8.03%
O=C(Cn1cccn1)N1C[C@@H](COCC2CC2)[C@H](c2ccccn2)C1 27.3%
C[C@@H](NS(C)(=O)=O)c1onc(-c2cccnc2)c1C(=O)O 3.38% [at 57.5 µM]
CCNC(=O)N[C@H]1[C@H](O)[C@@H](N2CCN(c3ccccc3OC)CC2)[C@@H]2OC[C@H]1O2 0.219% [at 57.5 µM]
O=C(c1ccncc1)N1CCCC(CN2CCCC2)CC1 (stereo not drawn) -0.451%
CC1CCN(Cc2nnnn2CCCC(=O)N2CCN(CCO)CC2)CC1 -2%
CN(Cc1ccccc1)C(=O)[C@H]1C[C@@H](O)[C@H](O)[C@@H]2N=C(Nc3ccc(-n4cccn4)cc3)S[C@@H]21 132%
CN1CCC2(C1)CN(Cc1ccccc1)c1ccc(C(=O)N3CCOCC3)cc12 (stereo not drawn) 15.9% [at 57.5 µM]
C=CCNC(=O)N[C@H]1CCN(C(=O)CC(C)(C)C)[C@@H]1C(=O)N[C@@H](Cc1cccs1)C(N)=O 11.3%
COc1cccc(CN2CC(C(=O)NCc3n[nH]c(=O)[nH]3)CCC2=O)c1 (stereo not drawn) 15.2%
CCc1nc(NC(=O)Cn2nc3c(cc2=O)CCCC3)sc1C 15.8%
CC(=O)NC1(C)CCN(Cc2cnc(-c3cccc(F)c3)s2)CC1 16% [at 57.5 µM]

Random excerpt: 2 compounds from above.
Activity % (negative = inhibition), inactive:
CCc1nc(NC(=O)Cn2nc3c(cc2=O)CCCC3)sc1C 15.8%
COc1cccc(CN2CC(C(=O)NCc3n[nH]c(=O)[nH]3)CCC2=O)c1 (stereo not drawn) 15.2%
